From article PMC13568704 come the findings set out here.

Amino acid sequences for entries named in this document (tags omitted). A change or cut given only in a name is not applied to a line headed by its entry. Residues count along the entry.
UniProt Q93878: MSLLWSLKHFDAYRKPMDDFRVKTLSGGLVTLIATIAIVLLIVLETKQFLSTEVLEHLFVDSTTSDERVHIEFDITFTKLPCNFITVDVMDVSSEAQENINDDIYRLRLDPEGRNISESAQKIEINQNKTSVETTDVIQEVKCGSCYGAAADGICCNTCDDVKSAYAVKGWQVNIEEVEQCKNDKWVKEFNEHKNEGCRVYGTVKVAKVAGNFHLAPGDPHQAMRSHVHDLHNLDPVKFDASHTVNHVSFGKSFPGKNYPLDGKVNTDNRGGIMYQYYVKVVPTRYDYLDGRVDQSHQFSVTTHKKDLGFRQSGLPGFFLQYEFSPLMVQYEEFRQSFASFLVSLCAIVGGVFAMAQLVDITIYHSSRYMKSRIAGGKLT
UniProt G5EEW1: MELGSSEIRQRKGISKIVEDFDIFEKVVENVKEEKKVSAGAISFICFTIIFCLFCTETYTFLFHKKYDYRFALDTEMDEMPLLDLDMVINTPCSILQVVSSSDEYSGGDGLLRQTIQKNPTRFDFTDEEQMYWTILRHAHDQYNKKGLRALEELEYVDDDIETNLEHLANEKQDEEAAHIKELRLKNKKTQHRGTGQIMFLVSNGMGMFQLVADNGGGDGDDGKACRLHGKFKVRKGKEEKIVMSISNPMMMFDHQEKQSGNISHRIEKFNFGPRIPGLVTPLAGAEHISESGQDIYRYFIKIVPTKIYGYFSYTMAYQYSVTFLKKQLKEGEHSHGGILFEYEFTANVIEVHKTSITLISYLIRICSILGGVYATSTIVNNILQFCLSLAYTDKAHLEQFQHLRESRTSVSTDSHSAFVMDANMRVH
UniProt P20163, residues 18-657: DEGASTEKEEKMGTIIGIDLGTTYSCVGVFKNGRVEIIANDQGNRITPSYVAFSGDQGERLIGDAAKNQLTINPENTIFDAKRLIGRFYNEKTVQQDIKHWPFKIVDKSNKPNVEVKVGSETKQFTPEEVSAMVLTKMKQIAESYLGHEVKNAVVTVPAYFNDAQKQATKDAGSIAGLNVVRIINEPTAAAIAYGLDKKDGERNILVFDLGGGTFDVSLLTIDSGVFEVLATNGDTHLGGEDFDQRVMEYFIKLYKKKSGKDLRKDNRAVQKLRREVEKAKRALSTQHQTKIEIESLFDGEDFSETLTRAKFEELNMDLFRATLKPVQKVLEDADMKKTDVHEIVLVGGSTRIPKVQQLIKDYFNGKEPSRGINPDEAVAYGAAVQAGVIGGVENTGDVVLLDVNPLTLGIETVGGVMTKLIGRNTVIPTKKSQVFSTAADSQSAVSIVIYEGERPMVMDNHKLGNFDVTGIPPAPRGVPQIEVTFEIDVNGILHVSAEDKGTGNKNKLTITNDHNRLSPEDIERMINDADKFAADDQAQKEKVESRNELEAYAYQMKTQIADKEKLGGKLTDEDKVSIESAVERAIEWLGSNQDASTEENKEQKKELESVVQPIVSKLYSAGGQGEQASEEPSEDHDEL

Assay [1] deals with GFP::ERGI-3 (endogenous knock-in, allele xdKi81) (C. elegans) (UniProt Q93878). Description: affinity purification with mass spectrometry; lysates of GFP knock-in worms (xdKi80, xdKi81; GFP-only worms as control) in 50 mM Tris-Cl pH 8.0, 150 mM NaCl, 0.5% sodium deoxycholate, 1% Triton X-100; anti-GFP polyclonal antibody overnight, protein A agarose 4 h at 4°C; in-gel digestion, TripleTOF 5600.

For assay [2], the target named is GFP::ERGI-2 (endogenous knock-in, allele xdKi80) (C. elegans) (UniProt G5EEW1). The assay is described as above.

Results are given in words; binding and its absence hold for the method and conditions named. Binding seen in cells or lysates may run through a third protein. Here binding means that the protein was enriched with, or labelled near, the bait; the list need not be complete.

On to “HSP-4/BiP (endogenous, C. elegans) (from UniProt P20163 18-657)”, for which the binding entry in assay [1] and in assay [2] was “binds” in each case.
